The record followed here is paper PMC7557908.

By UniProt entry, the sequences of proteins in these tests, tags left out. Where a name states a change or a piece, a line headed by the entry shows the natural chain unless it says otherwise.
UniProt Q08397: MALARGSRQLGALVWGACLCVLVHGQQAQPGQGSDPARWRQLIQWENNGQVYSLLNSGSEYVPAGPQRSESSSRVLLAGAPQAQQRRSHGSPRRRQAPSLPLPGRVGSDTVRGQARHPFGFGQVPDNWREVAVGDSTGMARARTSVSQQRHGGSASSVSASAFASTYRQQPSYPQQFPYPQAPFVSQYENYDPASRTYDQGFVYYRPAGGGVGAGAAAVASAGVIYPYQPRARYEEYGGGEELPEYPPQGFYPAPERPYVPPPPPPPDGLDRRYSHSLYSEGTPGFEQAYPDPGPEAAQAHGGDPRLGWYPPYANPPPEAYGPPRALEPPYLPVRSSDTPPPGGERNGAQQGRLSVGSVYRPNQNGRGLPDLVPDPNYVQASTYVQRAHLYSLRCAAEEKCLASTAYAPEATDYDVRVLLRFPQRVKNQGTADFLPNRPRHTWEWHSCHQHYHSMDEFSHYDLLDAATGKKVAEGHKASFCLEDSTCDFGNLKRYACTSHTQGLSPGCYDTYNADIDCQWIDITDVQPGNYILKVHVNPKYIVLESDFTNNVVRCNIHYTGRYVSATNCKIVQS
UniProt O95816: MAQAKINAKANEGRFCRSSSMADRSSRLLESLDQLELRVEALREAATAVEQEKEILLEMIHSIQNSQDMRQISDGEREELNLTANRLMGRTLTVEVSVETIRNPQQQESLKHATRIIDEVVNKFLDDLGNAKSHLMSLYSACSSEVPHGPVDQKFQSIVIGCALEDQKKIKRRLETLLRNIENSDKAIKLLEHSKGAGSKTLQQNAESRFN

This test has as its target GST-LOXL1 full length (FL), wild type (human (LOXL1 cloned from LN18 cDNA)) (UniProt Q08397). Put plainly: pull-down; GST pull-down: GST-LOXL1 constructs incubated with His-BAG2 constructs; called a direct interaction (Fig. 4c, 4d, 4f).

These are yes or no findings as the source states them, for the method shown. Binding seen in cells or lysates may run through a third protein. A result given as binding can be weak or reduced; the word gives no strength.

On to “His-BAG2 full length (FL) (from UniProt O95816 1-211)”, for which the binding entry was “binds”.
